According to patent publication US7431793B2, “Process for bonding substrates or parts and system including cyanoacrylate adhesive and accelerator composition” (Loctite (R&D) Limited, priority 2001, dated 2008):
Where “and” joins values, the source holds several entries; their conditions need not be identical. Identical values can stand only once.

What was measured:
[1] = Pre Spray test: activator sprayed onto substrate before application of a 10 ul drop of 401 adhesive; conditions: for Pre-CTV / Pre-Skin: 1% activator; for Pre Spray: 1.0% in IPA, cardboard substrate
[2] = Post Spray test: activator sprayed onto a 10 ul drop of 401 adhesive on a substrate (skin time, cure through volume time); conditions: for Post Spray: pyridine N-oxide derivative 1.0% in IPA; for CTV: pyridine N-oxides, Table 3; for CTV time: post spray, Table 1
[3] = On Part Time Initial, 10 ul drop of 401 adhesive
[4] = 1.0% activator in heptane, 10 ul drop of 401 adhesive, cardboard substrate
[5] = 2,6 disubstituted pyridines, 1% in IPA, 401 adhesive
[6] = 10 ul drop of 401 adhesive, cardboard substrate
[7] = 0.01% activator in heptane, 10 ul drop of 401 adhesive, cardboard substrate
[8] = 0.1% activator in heptane, 10 ul drop of 401 adhesive, cardboard substrate

2 Methyl 3(5 or 6) Ethoxy Pyrazine
Pre-CTV ([1]; On Part Time 16 hours): 35 min
Pre-CTV [1, 3]: 7 min
Post CTV [2, 4]: 7 s
Post Skin [2, 4]: no skin

Cc1nc(C)c(C)nc1C [Tetra methyl]
Pre-Skin ([1]; On Part Time Initial): 5 s
Pre-CTV [1, 3]: 4 to 5 min
Post CTV [2, 4]: 180 s
Post Skin [2, 4]: no skin

Cc1nccnc1C [2,3-Dimethyl]
Pre-CTV ([1]; On Part Time 30 minutes): 9 min
Pre-CTV ([1]; On Part Time 1 hour): 12 min
Pre-CTV ([1]; On Part Time 16 hours): >90 min
Pre-Skin ([1]; On Part Time Initial): 20 s
Pre-CTV [1, 3]: 3 min
Post CTV [2, 4]: 10 to 15 s
Post Skin [2, 4]: 2 to 4 s

CCCc1nccnc1C [2-methyl 3-n-propyl, 2-methyl 3-n-propyl pyrazine]
Pre-CTV ([1]; On Part Time 30 minutes): 7 min
Pre-CTV ([1]; On Part Time 1 hour): 8 min
Pre-CTV ([1]; On Part Time 16 hours): 60 min
Pre-CTV [1, 3]: 2 to 3 min
Post CTV [2, 4]: 8 to 10 s
Post Skin [2, 4]: no skin

c1ccncc1 [Pyridine, reference compound]
reactivity as initiator / post spray behaviour, in words [2]: only caused skinning

Cc1ccc(N(C)C)cc1 [DMPT, N,N-dimethyl-p-toluidine, reference compound]
Pre-CTV ([1]; On Part Time 15 minutes): 2.8 min
Pre-CTV ([1]; On Part Time 1 hour): 7 min
Pre-Skin ([1]; On Part Time Initial): No skin
Pre-CTV [1, 3]: 1 to 1.25 min
Post CTV [2, 4]: 14 s
Post Skin [2, 4]: No skin

SCCc1cnccn1 [2-Ethane Thiol, 2-ethane thiol pyrazine]
Pre-Skin ([1]; On Part Time Initial): 5 s
Pre-CTV [1, 3]: 8 min
Post CTV [2, 4]: 5 s
Post Skin [2, 4]: Immediate

Cc1cccc(CO)n1 [MPM, 6-methyl-2-pyridine-methanol]
Post CTV [2, 5]: 25 to 30 s

Cc1cnc(C)cn1 [2,5-Dimethyl, 2,5-dimethyl pyrazine]
Pre-Skin ([1]; On Part Time Initial): 60 s
Pre-CTV [1, 3]: 20 min
Post CTV [2, 4]: 10 to 15 s
Post Skin [2, 4]: 2 to 4 s

Cc1cc[n+]([O-])c(C)c1 [2,4-dimethyl, 2,4-dimethyl pyridine N-oxide]
Post Spray [2, 6]: 30 s
CTV [2]: 30 s

Cc1cnc(C)c(C)n1 [2,3,5-Trimethyl]
Pre-Skin ([1]; On Part Time Initial): no skin
Pre-CTV [1, 3]: 3 min
Post CTV [2, 4]: 10 s
Post Skin [2, 4]: no skin

Cc1cccc(CCCOCCO)n1 [MPPE, 2-(3-(6-methyl-2-pyridyl)-propoxy)ethanol]
Post CTV ([2]; 2,6 disubstituted pyridines, 1% in Heptane, 401 adhesive): 60 s

Cc1cccc(C)n1 [2,6 Lutidine, 2,6-dimethyl pyridine, reference compound]
reactivity as initiator / post spray behaviour, in words [2]: only caused skinning
Post CTV [2, 5]: >300 s

Cc1cnccn1 [2-Methyl, 2-methyl pyrazine]
Post CTV [2, 7]: 180 s
Post Skin [2, 7]: no skin
Post CTV [2, 8]: 80 s
Post Skin [2, 8]: 5 s
Post CTV [2, 4]: 60 to 180 s
Post Skin [2, 4]: 2 s
CTV time [2]: 1 to 3 min

Cc1cc[n+]([O-])cc1 [4-methyl, 4-methyl pyridine N-oxide]
Pre Spray ([1]; On Part time 30 minutes, 10 ul drop of 401 adhesive): 4 min
Pre Spray ([1]; On Part time 16 hours, 10 ul drop of 401 adhesive): 7 min
Pre Spray ([1]; On Part time initial, 10 ul drop of 401 adhesive): 4 min
Post Spray [2, 6]: 30 s
CTV [2]: 30 s

COc1nccnc1C [2-methoxy 3-methyl, 2-methoxy, 3-methyl pyrazine]
Pre-CTV ([1]; On Part Time 20 minutes): 4 min
Pre-CTV ([1]; On Part Time 1 hour): 20 min
Pre-CTV [1, 3]: 2 min
Post CTV [2, 4]: 6 s
Post Skin [2, 4]: no skin

[O-][n+]1ccccc1 [Pyridine N Oxide, Pyridine N oxide, reference compound]
reactivity as initiator / post spray behaviour, in words [2]: very slow initiator

Cc1cncc(C)n1 [2,6-Dimethyl, 2,6-dimethyl pyrazine]
Pre-CTV [1, 3]: 8 to 10 min
Post CTV [2, 7]: 600 s
Post Skin [2, 7]: no skin
Post CTV [2, 8]: ~900 s
Post Skin [2, 8]: 5 s
Post CTV [2, 4]: ~840 s and ~900 s
Post Skin [2, 4]: Immediate
CTV time [2]: ~14 min

c1cnccn1 [Pyrazine, pyrazine]
Pre-CTV [1, 3]: 7 min
Post CTV [2, 4]: 10 s
Post Skin [2, 4]: no skin
